For assay [1], the target named is Yes-associated protein (YAP), endogenous (human (endogenous in U251 and U87MG)) (UniProt P46937). In words: co-IP; YAP IP (antibody against YAP) from lysates of cells transfected with increasing amounts of Flag-ACTL6A; western blot for β-TrCP; cell line not stated. On the technique in general: In western blotting, separated proteins are transferred to a membrane and probed.

By UniProt entry, the sequences of proteins in these tests, tags left out.
UniProt P46937: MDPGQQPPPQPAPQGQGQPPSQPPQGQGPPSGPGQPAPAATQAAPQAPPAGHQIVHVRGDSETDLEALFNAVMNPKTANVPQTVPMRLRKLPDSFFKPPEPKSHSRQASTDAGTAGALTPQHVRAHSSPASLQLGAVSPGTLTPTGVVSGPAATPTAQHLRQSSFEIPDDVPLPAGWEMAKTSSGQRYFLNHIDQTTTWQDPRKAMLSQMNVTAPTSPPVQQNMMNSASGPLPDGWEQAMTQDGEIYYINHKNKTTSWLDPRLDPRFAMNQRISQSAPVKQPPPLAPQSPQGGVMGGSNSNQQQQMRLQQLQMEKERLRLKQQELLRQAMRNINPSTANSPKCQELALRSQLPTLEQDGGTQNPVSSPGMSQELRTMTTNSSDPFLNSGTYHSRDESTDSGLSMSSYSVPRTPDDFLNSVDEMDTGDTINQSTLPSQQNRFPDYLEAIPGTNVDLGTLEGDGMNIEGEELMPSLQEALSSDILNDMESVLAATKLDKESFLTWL
UniProt O96019: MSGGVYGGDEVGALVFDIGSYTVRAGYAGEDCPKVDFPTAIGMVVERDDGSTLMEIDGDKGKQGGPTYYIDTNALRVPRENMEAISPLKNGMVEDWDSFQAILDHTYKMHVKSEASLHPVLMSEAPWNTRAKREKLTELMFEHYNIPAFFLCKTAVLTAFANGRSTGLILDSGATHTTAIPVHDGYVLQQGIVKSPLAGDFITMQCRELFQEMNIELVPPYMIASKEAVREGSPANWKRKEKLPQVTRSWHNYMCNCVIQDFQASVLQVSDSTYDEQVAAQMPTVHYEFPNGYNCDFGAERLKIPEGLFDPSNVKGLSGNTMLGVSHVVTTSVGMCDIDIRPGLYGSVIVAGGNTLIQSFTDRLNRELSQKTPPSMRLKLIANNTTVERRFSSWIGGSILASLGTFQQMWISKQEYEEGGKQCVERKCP
UniProt Q9GZV5: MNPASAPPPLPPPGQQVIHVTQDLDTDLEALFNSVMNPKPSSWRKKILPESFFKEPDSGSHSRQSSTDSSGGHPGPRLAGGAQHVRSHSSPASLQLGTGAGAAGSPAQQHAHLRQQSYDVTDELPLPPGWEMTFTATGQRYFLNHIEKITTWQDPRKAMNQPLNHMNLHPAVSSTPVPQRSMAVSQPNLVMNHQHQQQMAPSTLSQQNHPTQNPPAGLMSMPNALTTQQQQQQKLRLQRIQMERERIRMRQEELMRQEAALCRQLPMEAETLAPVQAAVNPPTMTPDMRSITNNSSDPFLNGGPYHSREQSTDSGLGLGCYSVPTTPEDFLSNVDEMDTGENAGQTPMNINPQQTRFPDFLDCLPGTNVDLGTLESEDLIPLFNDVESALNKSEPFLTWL

For assay [2] the target is unchanged. The assay is described as follows: co-IP; endogenous proteins; IP with anti-YAP or anti-ACTL6A antibody (or IgG) and Protein A/G agarose from U251 and U87MG lysates in IP buffer, overnight at 4 °C; western blot.
Assay [3] addresses Actin-like 6A (ACTL6A), endogenous (human (endogenous in U251 and U87MG)) (UniProt O96019). The assay is described as above.

These are yes or no findings as the source states them, for the method shown. In cells and extracts the contact can be indirect. Some binding calls cover weakened binding; strength is not graded here.

In the case of “ACTL6A-3xFlag (pcDNA3.1-ACTL6A-3xFlag) (from UniProt O96019 1-429)”, the binding entry in assay [1] is on record as “binds”. Take “Actin-like 6A (ACTL6A), endogenous (from UniProt O96019 1-429)”: the binding result in assay [2] was “binds”. As to “Yes-associated protein (YAP), endogenous (from UniProt P46937 1-504)”, the binding entry in assay [3] is on record as “binds”. On to “transcriptional coactivator with PDZ-binding motif (TAZ), endogenous (from UniProt Q9GZV5 1-400)”, for which, in assay [3], the binding result was “binds”.

The values are drawn from publication PMC5938705.
